Test results as given in article PMC6892437.
These are yes or no findings as the source states them, for the method shown. Binding seen in cells or lysates may run through a third protein. Some binding calls cover weakened binding; strength is not graded here. Sequences can lack the tags named with a protein.

By UniProt entry, the sequences of proteins in these tests, tags left out.
UniProt O95858: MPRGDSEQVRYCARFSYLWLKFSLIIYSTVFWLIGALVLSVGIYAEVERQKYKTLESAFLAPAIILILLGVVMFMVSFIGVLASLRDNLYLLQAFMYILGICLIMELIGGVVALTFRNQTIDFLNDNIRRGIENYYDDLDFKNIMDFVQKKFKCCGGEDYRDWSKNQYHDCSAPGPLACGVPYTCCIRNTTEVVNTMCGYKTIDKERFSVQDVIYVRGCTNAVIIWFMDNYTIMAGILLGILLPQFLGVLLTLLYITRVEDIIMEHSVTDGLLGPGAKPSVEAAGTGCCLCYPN

T1: CD81 (human (endogenous in U2OS)) (UniProt P60033)
T1 sequence: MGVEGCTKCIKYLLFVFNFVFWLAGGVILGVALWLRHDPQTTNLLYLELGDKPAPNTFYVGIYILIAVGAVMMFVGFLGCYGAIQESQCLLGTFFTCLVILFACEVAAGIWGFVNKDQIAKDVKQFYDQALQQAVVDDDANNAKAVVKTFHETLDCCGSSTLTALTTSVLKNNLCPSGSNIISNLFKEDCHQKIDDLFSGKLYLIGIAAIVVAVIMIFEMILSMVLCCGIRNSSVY


Molecular target: T1, CD81 (human (endogenous in U2OS))
Test: co-IP; U2OS cells transfected or not with Tspan5 or Tspan15, lysed in 1% Brij 97 with 1 mM CaCl2 and MgCl2 (30 mM Tris pH 7.4, 150 mM NaCl); immunoprecipitation of ADAM10 or CD81, Western blot

Molecule	binding
untagged Tspan15 (ectopically expressed) (from UniProt O95858 1-294)	no binding
untagged Tspan5 (ectopically expressed) (protein, UniProt P62079 1-268) MSGKHYKGPEVSCCIKYFIFGFNVIFWFLGITFLGIGLWAWNEKGVLSNISSITDLGGFDPVWLFLVVGGVMFILGFAGCIGALRENTFLLKFFSVFLGIIFFLELTAGVLAFVFKDWIKDQLYFFINNNIRAYRDDIDLQNLIDFTQEYWQCCGAFGADDWNLNIYFNCTDSNASRERCGVPFSCCTKDPAEDVINTQCGYDARQKPEVDQQIVIYTKGCVPQFEKWLQDNLTIVAGIFIGIALLQIFGICLAQNLVSDIEAVRASW	binds
